Earlier results, collected in patent publication US11639337B2, “Bicyclic heteroaryl derivatives and preparation and uses thereof” (XWPHARMA LTD., priority 2017, dated 2023).

Test system: metastatic melanoma
Conditions: Phase 2, patients with metastatic melanoma; cited from earlier work

Compound: Nc1nc2ccc(OC(F)(F)F)cc2s1 [Riluzole]
- patients in whom metastasis was initially stabilized: 42%
